Test results as given in patent US20080249137A1, “PPAR active compounds” (priority 2005, published 2008).
Some of these results come from one statement about several compounds together. At least one structure is not confirmed: it was looked up by name or label, or the drawing left a doubt.

tested on: T1, at least one of PPARα, PPARγ and PPARδ; assay: PPAR activity assays: biochemical assay of Example 22 or cell based assay of Example 23, result pooled; set-up: species or system human; settings: either biochemical assay of Example 22 or cell based assay of Example 23; isoform not specified
T1 construct: P332. pET28 PPARA E199-Y468-X / P333. pET28 PPARG E205-Y475-X / P1057. pET BAM6 PPARD G165-Y441-X; fused on or other part: N-terminal His tag on the LBD in the biochemical assay

EC50, ≤ 1000 nM:
CCOc1cc(CC(=O)O)cc(S(=O)(=O)c2cccc(-c3ccc(OC)c(F)c3)c2)c1 [Compound P-0140, [3-Ethoxy-5-(3′-fluoro-4′-methoxy-biphenyl-3-sulfonyl)-phenyl]-acetic acid]
CCCOc1cc(CC(=O)O)cc(Oc2cccc(-c3cnc(OC)nc3OC)c2)c1 [Compound P-0133, {3-[3-(2,4-Dimethoxy-pyrimidin-5-yl)-phenoxy]-5-propoxy-phenyl}-acetic acid]
CCOc1cc(CC(=O)O)cc(Oc2cccc(-c3cccc(OC(F)(F)F)c3)c2)c1 [Compound P-0102, [3-Ethoxy-5-(3′-trifluoromethoxy-biphenyl-3-yloxy)-phenyl]-acetic acid]
Cc1nc(-c2ccc(C(F)(F)F)cc2)sc1COc1cc(CC(=O)O)cc(OCC2CC2)c1 [Compound P-0018, {3-Cyclopropyl methoxy-5-[4-methyl-2-(4-trifluoromethyl-phenyl)-thiazol-5-ylmethoxy]-phenyl}-acetic acid]
CCOc1cc(CC(=O)O)cc(Oc2cccc(-c3ccc(Cl)cc3)c2)c1 [Compound P-0097, [3-(4′-Chloro-biphenyl-3-yloxy)-5-ethoxy-phenyl]-aceticacid]
CCCCOc1cc(OCCCOc2ccc(C(C)=O)c(O)c2CCC)cc(C2(C(=O)O)CCCC2)c1 [Compound P-0005, 1-{3-[3-(4-acetyl-3-hydroxy-2-propyl-phenoxy)-propoxy]-5-butoxy-phenyl}-cyclopentanecarboxylic acid]
CCOc1ccc(-c2cccc(Oc3cc(CC(=O)O)cc(OCCOC)c3)c2)cc1 [Compound P-0223, [3-(4′-Ethoxy-biphenyl-3-yloxy)-5-(2-methoxy-ethoxy)-phenyl]-acetic acid]
CCOc1cc(CC(=O)O)cc(S(=O)(=O)c2cccc(-c3ccc(OC)cc3)c2)c1 [Compound P-0081, [3-Ethoxy-5-(4′-methoxy-biphenyl-3-sulfonyl)-phenyl]-acetic acid]
CCOc1cc(CC(=O)O)cc(S(=O)(=O)c2cccc(-c3ccc(C(F)(F)F)cc3)c2)c1 [Compound P-0080, [3-ethoxy-5-(4′-trifluoromethyl-biphenyl-3-sulfonyl)phenyl]-acetic acid]
CCOc1cc(CC(=O)O)cc(Oc2cccc(-c3c(C)nn(C)c3C)c2)c1 [Compound P-0178, {3-Ethoxy-5-[3-(1,3,5-trimethyl-1H-pyrazol-4-yl)-phenoxy]-phenyl}-acetic acid]
CCOc1ccc(-c2cccc(S(=O)(=O)c3cc(CC(=O)O)cc(OCC)c3)c2)cc1 [Compound P-0136, [3-Ethoxy-5-(4′-ethoxy-biphenyl-3-sulfonyl)-phenyl]-acetic acid]
CCCOc1cc(CC(=O)O)cc(S(=O)(=O)c2cccc(-c3cccc(C(F)(F)F)c3)c2)c1 [Compound P-0111, [3-Propoxy-5-(3′-trifluoromethyl-biphenyl-3-sulfonyl)-phenyl]-acetic acid]
CCCOc1cc(CC(=O)O)cc(S(=O)(=O)c2cccc(-c3cnn(CC(C)C)c3)c2)c1 [Compound P-0190, {3-[3-(1-Isobutyl-1H-pyrazol-4-yl)-benzenesulfonyl]-5-propoxy-phenyl}-acetic acid]
CCOc1cc(CC(=O)O)cc(Oc2cccc(-c3ccc(OC)cc3)c2)c1 [Compound P-0099, [3-Ethoxy-5-(4′-methoxy-biphenyl-3-yloxy)-phenyl]-acetic acid]
COCCOc1cc(CC(=O)O)cc(S(=O)(=O)c2ccc(Oc3ccc(OC(F)(F)F)cc3)cc2)c1 [Compound P-0059, {3-(2-Methoxy-ethoxy)-5-[4-(4-trifluoromethoxy-phenoxy)-benzenesulfonyl]-phenyl}-acetic acid]
CCCOc1cc(CC(=O)O)cc(S(=O)(=O)c2ccc(F)cc2)c1 [Compound P-0050, [3-(4-Fluoro-benzenesulfonyl)-5-propoxy-phenyl]-acetic acid]
O=C(O)Cc1cc(OCC2CC2)cc(S(=O)(=O)c2ccc(Oc3ccc(C(F)(F)F)cc3)cc2)c1 [Compound P-0068, {3-Cyclopropylmethoxy-5-[4-(4-trifluoromethyl-phenoxy)-benzenesulfonyl]-phenyl}-acetic acid]
CCCOc1cc(CCC(=O)O)cc(S(=O)(=O)c2ccc(Oc3ccc(C(F)(F)F)cc3)cc2)c1 [Compound P-0150, 3-{3-Propoxy-5-[4-(4-trifluoromethyl-phenoxy)-benzenesulfonyl]-phenyl}-propionic acid]
COc1ccc(Oc2ccc(S(=O)(=O)c3cc(CC(=O)O)cc(OCC4CC4)c3)cc2)cc1OC [Compound P-0215, {3-Cyclopropylmethoxy-5-[4-(3,4-dimethoxy-phenoxy)-benzenesulfonyl]-phenyl}-acetic acid]
CCCCOc1cc(CC(=O)O)cc(OCc2sc(-c3ccc(C(F)(F)F)cc3)nc2C)c1 [Compound P-0009, {3-butoxy-5-[4-methyl-2-(4-trifluoromethyl-phenyl)-thiazol-5-ylmethoxy]-phenyl}-acetic acid]
COCCOc1cc(CC(=O)O)cc(S(=O)(=O)c2ccc(Oc3ccc(C(F)(F)F)cc3)cc2)c1 [Compound P-0058, {3-(2-Methoxy-ethoxy)-5-[4-(4-trifluoromethyl-phenoxy)-benzenesulfonyl]-phenyl}-acetic acid]
CCCOc1cc(CC(=O)O)cc(S(=O)(=O)c2ccc(Oc3ccc(-n4ccnc4)cc3)cc2)c1 [Compound P-0117, {3-[4-(4-Imidazol-1-yl-phenoxy)-benzenesulfonyl]-5-propoxy-phenyl}-acetic acid]
CCOc1cc(CC(=O)O)cc(S(=O)(=O)c2cccc(-c3cccc(OC(F)(F)F)c3)c2)c1 [Compound P-0137, [3-Ethoxy-5-(3′-trifluoromethoxy-biphenyl-3-sulfonyl)-phenyl]-acetic acid]
CCCOc1ccc(Oc2ccc(S(=O)(=O)c3cc(CC(=O)O)cc(OCC)c3)cc2)cc1 [Compound P-0270, {3-Ethoxy-5-[4-(4-propoxy-phenoxy)-benzenesulfonyl]-phenyl}-acetic acid]
COCCOc1cc(CC(=O)O)cc(S(=O)(=O)c2cccc(-c3ccc(C(F)(F)F)cc3)c2)c1 [Compound P-0202, [3-(2-Methoxy-ethoxy)-5-(4′-trifluoromethyl-biphenyl-3-sulfonyl)-phenyl]-acetic acid]
CCCOc1cc(CC(=O)O)cc(S(=O)(=O)c2cccc(-c3ccc(F)cc3)c2)c1 [Compound P-0095, [3-(4′-Fluoro-biphenyl-3-sulfonyl)-5-propoxy-phenyl]-acetic acid]
CCOc1cc(CC(=O)O)cc(S(=O)(=O)c2cccc(-c3ccc(F)c(Cl)c3)c2)c1 [Compound P-0135, [3-(3′-Chloro-4′-fluoro-biphenyl-3-sulfonyl)-5-ethoxy-phenyl]-acetic acid]
CCCCOc1cc(CC(=O)O)cc(OCCCOc2ccc(C(C)=O)c(O)c2CCC)c1 [Compound P-0001, {3-[3-(4-Acetyl-3-hydroxy-2-propyl-phenoxy)-propoxy]-5-butoxy-phenyl}-acetic acid]
CCOc1cc(CCC(=O)O)cc(S(=O)(=O)c2ccc(Oc3ccc(C(F)(F)F)cc3)cc2)c1 [Compound P-0155, 3-{3-Ethoxy-5-[4-(4-trifluoromethyl-phenoxy)-benzenesulfonyl]-phenyl}-propionic acid]
CCCCOc1cc(CC(=O)O)cc(OCCc2nc(-c3ccccc3)oc2C)c1 [Compound P-0010, {3-Butoxy-5-[2-(5-methyl-2-phenyl-oxazol-4-yl)-ethoxy]-phenyl}-acetic acid]
CCCOc1cc(CCC(=O)O)cc(S(=O)(=O)c2ccc(OC)cc2)c1 [Compound P-0157, 3-[3-(4-Methoxy-benzenesulfonyl)-5-propoxy-phenyl]-propionicacid]
CCOc1cc(CC(=O)O)cc(S(=O)(=O)c2cccc(-c3ccc(F)cc3)c2)c1 [Compound P-0096, [3-Ethoxy-5-(4′-fluoro-biphenyl-3-sulfonyl)-phenyl]-acetic acid]
CCCOc1cc(CC(=O)O)cc(S(=O)(=O)c2ccc(Oc3ccc(S(C)(=O)=O)cc3)cc2)c1 [Compound P-0282, {3-[4-(4-Methanesulfonyl-phenoxy)-benzenesulfonyl]-5-propoxy-phenyl}-acetic acid]
O=C(O)Cc1cccc(S(=O)(=O)c2cnc(-c3ccc(Cl)cc3)s2)c1 [Compound P-0285, {3-[2-(4-Chloro-phenyl)-thiazole-5-sulfonyl]-phenyl}-acetic acid]
CCOc1cc(CC(=O)O)cc(S(=O)(=O)c2cccc(-c3cnn(CC(C)C)c3)c2)c1 [Compound P-0193, {3-Ethoxy-5-[3-(1-isobutyl-1H-pyrazol-4-yl)-benzenesulfonyl]-phenyl}-acetic acid]
CCCOc1cc(CC(=O)O)cc(S(=O)(=O)c2cccc(Oc3ccc(OC)cc3)c2)c1 [Compound P-0075, {3-[3-(4-Methoxy-phenoxy)-benzenesulfonyl]-5-propoxy-phenyl}-acetic acid]
O=C(O)Cc1cc(OCc2ccccc2)cc(S(=O)(=O)c2ccc(Oc3ccc(C(F)(F)F)cc3)cc2)c1 [Compound P-0061, {3-Benzyloxy-5-[4-(4-trifluoromethyl-phenoxy)-benzenesulfonyl]-phenyl}-acetic acid]
COCCOc1cc(CC(=O)O)cc(Oc2cccc(-c3cnn(CCC(C)C)c3)c2)c1 [Compound P-0209, (3-(2-Methoxy-ethoxy)-5-{3-[1-(3-methyl-butyl)-1H-pyrazol-4-yl]-phenoxy}-phenyl)-acetic acid]
CC(C)CCn1cc(-c2cccc(Oc3cc(CC(=O)O)cc(OCC4CC4)c3)c2)cn1 [Compound P-0174, (3-Cyclopropylmethoxy-5-{3-[1-(3-methyl-butyl)-1H-pyrazol-4-yl]-phenoxy}-phenyl)-acetic acid]
